Laboratory results: the supplement of paper PMC8728848
This is one part of the list.

What was measured:
Test in all cases: glycan array binding signal (z-score within array); higher = stronger binding
Conditions in all cases: glycan notation: IUPAC condensed, linker removed
[1] = biological target: Man(a1-2)Man(a1-3)[Man(a1-2)Man(a1-6)]Man(a1-6)[Man(a1-2)Man(a1-2)Man(a1-3)]Man
In short: (§1)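 Glycan array data were curated from 3228 arrays in the Consortium for Functional Glycomics database and kept only where the protein sequence was available. Glycan names were converted to IUPAC-condensed notation, and columns mapping to the same glycan were averaged. The binding signal is a within-array Z-score, averaged across arrays of the same protein sequence at different concentrations or buffers and across linkers. Negative Z-scores can be read as non-binding.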

[2] = biological target: Man(a1-2)Man(a1-3)[Man(a1-2)Man(a1-6)]Man(a1-6)[Man(a1-2)Man(a1-2)Man(a1-3)]Man(b1-4)GlcNAc(b1-4)GlcNAc
In short: as §1

[3] = biological target: Man(a1-2)Man(a1-3)[Man(a1-6)]Man(a1-6)[Man(a1-2)Man(a1-3)]Man(b1-4)GlcNAc(b1-4)GlcNAc
In short: as §1

[4] = biological target: Man(a1-2)Man(a1-6)[Man(a1-3)]Man(a1-6)[Man(a1-2)Man(a1-2)Man(a1-3)]Man
In short: as §1

[5] = biological target: Man(a1-2)Man(a1-6)[Man(a1-3)]Man(a1-6)[Man(a1-2)Man(a1-2)Man(a1-3)]Man(b1-4)GlcNAc(b1-4)GlcNAc
In short: as §1

Man(a1-3)[Man(a1-6)]Man = biological target: Man(a1-3)[Man(a1-6)]Man
In short: as §1

[6] = biological target: Man(a1-3)[Man(a1-6)]Man(a1-6)[Man(a1-2)Man(a1-3)]Man(b1-4)GlcNAc(b1-4)GlcNAc
In short: as §1

[7] = biological target: Man(a1-3)[Man(a1-6)]Man(a1-6)[Man(a1-3)]Man
In short: as §1

[8] = biological target: Man(a1-3)[Man(a1-6)]Man(a1-6)[Man(a1-3)]Man(b1-4)GlcNAc(b1-4)GlcNAc
In short: as §1

[9] = biological target: Man(a1-3)[Man(a1-6)]Man(b1-4)GlcNAc(b1-4)GlcNAc
In short: as §1

[10] = biological target: Man(a1-3)[Man(a1-6)]Man(b1-4)GlcNAc(b1-4)[Fuc(a1-6)]GlcNAc
In short: as §1

Man(a1-6)Man = biological target: Man(a1-6)Man
In short: as §1

Man(b1-4)GlcNAc = biological target: Man(b1-4)GlcNAc
In short: as §1

MurNAc(b1-4)GlcNAc = biological target: MurNAc(b1-4)GlcNAc
In short: as §1

Neu5Ac(a2-3)Gal = biological target: Neu5Ac(a2-3)Gal
In short: as §1

[11] = biological target: Neu5Ac(a2-3)Gal(b1-3)GalNAc
In short: as §1

[12] = biological target: Neu5Ac(a2-3)Gal(b1-3)GalNAc(b1-3)Gal(a1-4)Gal(b1-4)Glc
In short: as §1

[13] = biological target: Neu5Ac(a2-3)Gal(b1-3)GalNAc(b1-4)[Neu5Ac(a2-3)]Gal(b1-4)Glc
In short: as §1

[14] = biological target: Neu5Ac(a2-3)Gal(b1-3)GalNAc(b1-4)[Neu5Ac(a2-8)Neu5Ac(a2-3)]Gal(b1-4)Glc
In short: as §1

[15] = biological target: Neu5Ac(a2-3)Gal(b1-3)GalNAc6S
In short: as §1

[16] = biological target: Neu5Ac(a2-3)Gal(b1-3)GlcNAc
In short: as §1

[17] = biological target: Neu5Ac(a2-3)Gal(b1-3)GlcNAc(b1-2)Man
In short: as §1

[18] = biological target: Neu5Ac(a2-3)Gal(b1-3)GlcNAc(b1-2)Man(a1-3)[GlcNAc(b1-4)][Neu5Ac(a2-3)Gal(b1-3)GlcNAc(b1-2)Man(a1-6)]Man(b1-4)GlcNAc(b1-4)GlcNAc
In short: as §1

[19] = biological target: Neu5Ac(a2-3)Gal(b1-3)GlcNAc(b1-2)Man(a1-3)[Neu5Ac(a2-3)Gal(b1-3)GlcNAc(b1-2)Man(a1-6)]Man(b1-4)GlcNAc(b1-4)GlcNAc
In short: as §1

[20] = biological target: Neu5Ac(a2-3)Gal(b1-3)GlcNAc(b1-3)Gal(b1-3)GlcNAc
In short: as §1

[21] = biological target: Neu5Ac(a2-3)Gal(b1-3)GlcNAc(b1-3)Gal(b1-4)GlcNAc
In short: as §1

[22] = biological target: Neu5Ac(a2-3)Gal(b1-3)GlcNAc(b1-3)GalNAc
In short: as §1

[23] = biological target: Neu5Ac(a2-3)Gal(b1-3)GlcNAc(b1-4)Gal(b1-4)Glc
In short: as §1

[24] = biological target: Neu5Ac(a2-3)Gal(b1-3)GlcNAc(b1-6)GalNAc
In short: as §1

[25] = biological target: Neu5Ac(a2-3)Gal(b1-3)GlcNAc6S
In short: as §1

[26] = biological target: Neu5Ac(a2-3)Gal(b1-3)[Fuc(a1-4)]GlcNAc
In short: as §1

[27] = biological target: Neu5Ac(a2-3)Gal(b1-3)[Fuc(a1-4)]GlcNAc(b1-3)Gal(b1-3)[Fuc(a1-4)]GlcNAc
In short: as §1

[28] = biological target: Neu5Ac(a2-3)Gal(b1-3)[Fuc(a1-4)]GlcNAc(b1-3)Gal(b1-4)[Fuc(a1-3)]GlcNAc
In short: as §1

[29] = biological target: Neu5Ac(a2-3)Gal(b1-3)[GlcNAc(b1-6)]GalNAc
In short: as §1

[30] = biological target: Neu5Ac(a2-3)Gal(b1-3)[Neu5Ac(a2-6)]GalNAc
In short: as §1

[31] = biological target: Neu5Ac(a2-3)Gal(b1-3)[Neu5Ac(a2-6)]GlcNAc(b1-3)[Fuc(a1-3)[Gal(b1-4)]GlcNAc(b1-6)]Gal(b1-4)Glc
In short: as §1

[32] = biological target: Neu5Ac(a2-3)Gal(b1-3)]Neu5Ac(a2-3)Gal(b1-4)]GlcNAc
In short: as §1

B1: SynCAM (Mus musculus) (protein)
chain: MASAVLPSGSQCAAAAAVAAAAAPPGLRLRLLLLLLSAAALIPTGDGQNLFTKDVTVIEGEVATISCQVNKSDDSVIQLLNPNRQTIYFRDFRPLKDSRFQLLNFSSSELKVSLTNVSISDEGRYFCQLYTDPPQESYTTITVLVPPRNLMIDIQKDTAVEGEEIEVNCTAMASKPATTIRWFKGNKELKGKSEVEEWSDMYTVTSQLMLKVHKEDDGVPVICQVEHPAVTGNLQTQRYLEVQYKPQVHIQMTYPLQGLTREGDAFELTCEAIGKPQPVMVTWVRVDDEMPQHAVLSGPNLFINNLNKTDNGTYRCEASNIVGKAHSDYMLYVYDPPTTIPPP
What does the source list for B1?
glycan array binding signal (z-score) [1]: -0.953; glycan array binding signal (z-score) [2]: -0.34; glycan array binding signal (z-score) [3]: -0.236; glycan array binding signal (z-score) [4]: -1.01; glycan array binding signal (z-score) [5]: -0.553; glycan array binding signal (z-score) (Man(a1-3)[Man(a1-6)]Man): -0.227; glycan array binding signal (z-score) [6]: 0.936; glycan array binding signal (z-score) [7]: -1.09; glycan array binding signal (z-score) [8]: -0.113; glycan array binding signal (z-score) [9]: -0.604; glycan array binding signal (z-score) [10]: -0.58; glycan array binding signal (z-score) (Man(a1-6)Man): 0.627; glycan array binding signal (z-score) (Man(b1-4)GlcNAc): -0.306; glycan array binding signal (z-score) (MurNAc(b1-4)GlcNAc): -1.26; glycan array binding signal (z-score) (Neu5Ac(a2-3)Gal): -0.411; glycan array binding signal (z-score) [11]: -0.598; glycan array binding signal (z-score) [12]: 0.389; glycan array binding signal (z-score) [13]: -0.472; glycan array binding signal (z-score) [14]: 0.566; glycan array binding signal (z-score) [15]: -1.37; glycan array binding signal (z-score) [16]: -0.059; glycan array binding signal (z-score) [17]: -0.517; glycan array binding signal (z-score) [18]: -0.332; glycan array binding signal (z-score) [19]: 0.278; glycan array binding signal (z-score) [20]: -0.537; glycan array binding signal (z-score) [21]: -1.56; glycan array binding signal (z-score) [22]: -0.36; glycan array binding signal (z-score) [23]: -0.756; glycan array binding signal (z-score) [24]: -0.216; glycan array binding signal (z-score) [25]: -0.498; glycan array binding signal (z-score) [26]: 0.283; glycan array binding signal (z-score) [27]: 0.64; glycan array binding signal (z-score) [28]: 0.587; glycan array binding signal (z-score) [29]: 0.48; glycan array binding signal (z-score) [30]: -0.215; glycan array binding signal (z-score) [31]: -0.498; glycan array binding signal (z-score) [32]: -0.395
